Drawing on patent US20160376359A1, this text covers binding for 1 molecule.

These are yes or no findings as the source states them, for the method shown. Some entries that bind do so weakly or less than the wild type.

For the assay, the target named is T1, human proBDNF protein (prokaryotically expressed, Example 1) (human) (UniProt P23560).
T1 sequence (looked up): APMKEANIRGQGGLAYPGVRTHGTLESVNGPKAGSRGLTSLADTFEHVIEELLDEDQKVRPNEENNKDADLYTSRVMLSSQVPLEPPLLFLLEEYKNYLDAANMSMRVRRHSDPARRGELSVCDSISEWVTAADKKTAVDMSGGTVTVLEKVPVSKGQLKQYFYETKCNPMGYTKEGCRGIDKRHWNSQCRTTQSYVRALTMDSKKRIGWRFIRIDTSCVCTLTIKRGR
Kind of assay: ELISA on coated human proBDNF with serial dilutions of CHO culture supernatant. Background: ELISA stands for enzyme-linked immunosorbent assay.

B1: human-mouse chimeric antibody CH2B11 (antibody, V domains shown)
VH: EVKVVESGGGLVQPGGSLRLSCATSGFTFTDYYMSWVRQPPGKALEWLGFIRNKANGYTTEYSSSVKGRFTISRDNSQSILYLQMNTLRAEDSATYYCAITMDYWGQGTSVTVSS
VL: DIQMTQSPASLSASVGETVTITCRASGNIHNYLAWYQKKQGKSPHLLVYNAQTLADGVPSRFSGSASGTQYSLKIDSLQPEDFGSYYCQHFWSTPFTFGSGTKLEIKR
Take B1: the binding result was “binds”.
